Measured values as given in PubChem BioAssay AID540256 (National Center for Advancing Translational Sciences (NCATS), 2011).
The campaign covered roughly 300,000 compounds. About 3,700 (1.2%) were called active. This list was built around the results that the source calls inconclusive (neither active nor inactive); the mix of calls is not that of the screen. Calls follow the shape of the full dose curve; tested in HEK293 cells. Where the call is inconclusive, the potency comes from a doubtful curve fit.

Assay: qHTS for Inhibitors of binding or entry into cells for Lassa Virus; also: nearly all actives have a fitted effect of over 50% in size
Conditions: Lassa virus pseudotype entry inhibition, cell reporter; series mostly up to 37.9 µM
Potency is read from the fitted curve at half-maximal effect.

Compound | Potency
ClCC(CNCc1ccccc1)c1ccccc1 (stereo unspecified) | inactive
COc1ccc(CSCC(=O)N/N=C/c2ccccc2OCc2ccccc2)cc1 | inconclusive: 7.3 µM [inhibitor, partial curve, poor fit]
Cc1ccc(OCCNC(=O)c2cc(C(=O)NCCOc3ccc(C)cc3)cc([N+](=O)[O-])c2)cc1 | inconclusive: 29.1 µM [inhibitor, single point]
COc1cccc(CN2CCC(N(CCc3ccccc3)Cc3ccccc3)CC2)c1OC | inconclusive: 35.5 µM [inhibitor, partial curve, poor fit]
O=C(O)CNC(=O)c1ccc(NC(=O)/C(=C/c2ccccc2)NC(=O)c2ccco2)cc1 | inconclusive: 6.31 µM [activator, partial curve, poor fit]
COc1cccc(CN2CCN(Cc3cc4ccccc4o3)CC2CCO)c1 (stereo unspecified) | inconclusive: 7.94 µM [inhibitor, partial curve, poor fit]
CCOC(=O)c1c(NC(=O)Cn2nnc(-c3ccccc3Cl)n2)sc(C)c1C | inactive
Cc1ccc(CCNC(=O)c2cc3n(n2)CCCN(Cc2ccc(C)cc2)C3=O)cc1 | inconclusive: 3.98 µM [inhibitor, partial curve, poor fit]
COc1ccc(-c2noc(CN(C(=O)c3ccc4c(c3)OCO4)C(C)C)n2)cc1OC | inconclusive: 6.31 µM [activator, single point]
Cc1ccc(S(=O)(=O)N2c3ccccc3CC2C)cc1 (stereo unspecified) | inconclusive: 35.5 µM [inhibitor, single point]
Cc1cc(C)cc(N(C(C)C(=O)NCCC2=CCCCC2)S(C)(=O)=O)c1 (stereo unspecified) | inactive
O=C(O)c1cnn(-c2ccccc2)c1-c1ccncc1 | inconclusive: 3.55 µM [activator, partial curve]
Cc1nc(SCc2ccccc2F)c2oc3ccccc3c2n1 | inconclusive: 20 µM [inhibitor, partial curve, poor fit]
CN(C)S(=O)(=O)c1cccc(NC(=O)c2ccccc2OCc2ccc(F)cc2)c1 | inconclusive: 1 µM [inhibitor, single point]
O=C1c2ccccc2NC(c2ccc(-c3cccc([N+](=O)[O-])c3)o2)N1O (stereo unspecified) | inconclusive: 16.4 µM [inhibitor, single point]
O=C(CSc1ccc2c(c1)OCCO2)N1CCN(c2ccccc2O)CC1 | inconclusive: 35.5 µM [inhibitor, single point]
O=C(Nc1ccc(Cl)cn1)c1cc2ccccc2o1 | inconclusive: 10 µM [inhibitor, partial curve, poor fit]
O=C(N/N=C/c1ccc(-c2cccc(C(F)(F)F)c2)o1)c1ccccc1Br | inconclusive: 25.9 µM [inhibitor, single point]
CC1=C(C(=O)OC2CCCCC2)C(c2ccco2)C2=C(CC(C)(C)CC2=O)N1 (stereo unspecified) | inconclusive: 12.6 µM [inhibitor, single point]
COc1ccc(CCNC(=O)C(C)Sc2ccc(C)cc2)cc1OC (stereo unspecified) | inconclusive: 1.26 µM [inhibitor, single point]
COc1ccccc1C(CNC(=O)c1cccc(NS(=O)(=O)c2ccc(Br)cc2)c1)N(C)C (stereo unspecified) | inconclusive: 22.4 µM [inhibitor, single point]
CC1Cc2ccccc2N1S(=O)(=O)c1nnc(NC(=O)c2cccc(F)c2)s1 (stereo unspecified) | inactive

Exported with tabs: part of the list above
Compound	Potency
COc1ccc(CSCC(=O)N/N=C/c2ccccc2OCc2ccccc2)cc1	inconclusive: 7.3 µM [inhibitor, partial curve, poor fit]
Cc1ccc(OCCNC(=O)c2cc(C(=O)NCCOc3ccc(C)cc3)cc([N+](=O)[O-])c2)cc1	inconclusive: 29.1 µM [inhibitor, single point]
COc1cccc(CN2CCC(N(CCc3ccccc3)Cc3ccccc3)CC2)c1OC	inconclusive: 35.5 µM [inhibitor, partial curve, poor fit]
O=C(O)CNC(=O)c1ccc(NC(=O)/C(=C/c2ccccc2)NC(=O)c2ccco2)cc1	inconclusive: 6.31 µM [activator, partial curve, poor fit]
COc1cccc(CN2CCN(Cc3cc4ccccc4o3)CC2CCO)c1 (stereo unspecified)	inconclusive: 7.94 µM [inhibitor, partial curve, poor fit]

The list continues:

Compound | Potency
O=C(CSc1cccc[n+]1[O-])Nc1cccc(Oc2ccccc2)c1 | inconclusive: 5.62 µM [inhibitor, single point]
S=c1[nH]nc(-c2ccco2)n1-c1cccc2ccccc12 | inconclusive: 7.08 µM [activator, partial curve]
Cc1ccc(F)cc1CNC(=O)c1cc(COc2ccc3ncccc3c2)on1 | inconclusive: 3.98 µM [inhibitor, full curve, poor fit]
N[C@H](C(=O)O)[C@H](Cc1ccccc1)C(=O)O | inactive
CCOC(=O)c1cnc(SCC(=O)N2CCN(c3ccccc3)CC2)nc1N | inactive
CC(=O)OC(C(=O)Nc1ccccc1)C(C)S(=O)(=O)c1ccccc1 (stereo unspecified) | inconclusive: 22.4 µM [inhibitor, single point]
O=C(Nc1sc2c(c1C(=O)Nc1cccc(Cl)c1)CCCC2)c1cccs1 | inactive
Cn1c(=O)c(=O)n(C)c2cc(N3CCCC3)c(NC(=O)c3ccccc3F)cc21 | inactive
COC(=O)c1ccc(C[n+]2ccccc2)cc1 | inconclusive: 35.5 µM [activator, single point]
Cc1ccc(N2C(=O)c3ccccc3C2=O)cc1C | inactive
CC/C(=N/Nc1ccccc1)c1cnnc(SC)n1 | inconclusive: 17.8 µM [inhibitor, single point]
CCn1c(=O)cc(SCC(=O)NCCCN2CCN(c3ccc(F)cc3)CC2)c2ccccc21 | inactive
Cn1nnnc1SCC(=O)c1ccco1 | inactive
CCCCn1cc(S(=O)(=O)c2ccc(C)c(C)c2)c(=O)c2cc(F)c(N(CC)CC)cc21 | inconclusive: 10 µM [inhibitor, partial curve]
CCn1nc(-c2ccccc2)c(-c2ccccc2)c(C(=O)Nc2nc(C)c(C(C)=O)s2)c1=O | inactive
Cc1ccc(-c2ccc(C(=O)NCCCNC(=O)c3cnccn3)o2)cc1Cl | inconclusive: 35.5 µM [inhibitor, partial curve, poor fit]
O=C(O)C1=C(C(=O)O)C2C=CC1C2 | inactive
Oc1ccccc1-c1n[nH]c(=S)n1Cc1ccco1 | inconclusive: 4.61 µM [inhibitor, single point]
CC(=O)Nc1ccc(NC(=O)C2(c3cccs3)CCOCC2)cc1 | inconclusive: 14.1 µM [inhibitor, partial curve, poor fit]
N/C(=N\OC(=O)CCC1CCCCC1)c1ccccn1 | inconclusive: 11.6 µM [activator, partial curve, poor fit]
O=c1/c(=C/c2ccc(CNS(=O)(=O)c3ccccc3)o2)sc2n1CCN=2 | inconclusive: 0.82 µM [inhibitor, partial curve, poor fit]
Cc1ccc(-c2nc3ccsc3c(=O)[nH]2)cc1 | inconclusive: 11.2 µM [inhibitor, single point]

Compound | Potency
COC(=O)c1cc(=O)n2c(-c3ccccc3)csc2n1 | inconclusive: 1.16 µM [activator, single point]
CCn1c2ccccc2c2cc(NC(=S)N3CCOCC3)ccc21 | inconclusive: 12.6 µM [inhibitor, single point]
COc1ccc2[nH]cc(CCNC(=O)c3cnn(-c4ccc(C)cc4)c3C3CCN(C(=O)OC(C)(C)C)CC3)c2c1 | inconclusive: 1.26 µM [inhibitor, full curve, poor fit]
COc1ccc(/C=C2/CC/C(=C\c3ccc(OC)c(OC)c3OC)C2=O)c(OC)c1OC | inconclusive: 5.01 µM [inhibitor, partial curve]
COc1ccnc(Oc2cccc(C(F)(F)F)c2)c1C(=O)N/C=N/OCc1ccccc1F | inconclusive: 12.6 µM [inhibitor, partial curve, poor fit]
COc1cc(NC(=O)c2ccccc2Cl)ccc1NC(=O)c1ccco1 | inactive
CC1CCCCC1NS(=O)(=O)c1ccc(S(=O)(=O)NCc2ccncc2)cc1 (stereo unspecified) | inconclusive: 4.61 µM [inhibitor, full curve, poor fit]
COc1ccc(C(=O)NC(=S)NCc2ccco2)cc1 | inconclusive: 7.08 µM [inhibitor, single point]
CC1Sc2ccc(C(=O)Nc3ccc(S(=O)(=O)N(C)C)cc3)cc2NC1=O (stereo unspecified) | inconclusive: 11.2 µM [inhibitor, partial curve, poor fit]
COc1cccc2cc(C(C)N(CCCN3CCOCC3)C(=S)Nc3cccc(C)c3)oc12 (stereo unspecified) | inconclusive: 12.6 µM [inhibitor, single point]
O=C(Nc1ccc(Oc2cccc(C(F)(F)F)c2)nc1)c1ccco1 | inactive
COc1ccc(N2CCN(C(=O)c3ccc(CNS(=O)(=O)c4cc(C)ccc4C)cc3)CC2)cc1 | inactive
OC(c1ccccc1)C(NCCNCc1ccccc1)c1ccccc1 (stereo unspecified) | inconclusive: 35.5 µM [inhibitor, single point]
COc1ccc(OC)c(CCNC(=O)c2cnn(-c3ccc(C)cc3C)c2C2CCN(C(=O)OC(C)(C)C)CC2)c1 | inconclusive: 2 µM [inhibitor, full curve, poor fit]
COc1ccc(CCC(C)NC2CCCCCCC2)cc1 (stereo unspecified) | inconclusive: 35.5 µM [inhibitor, single point]
COc1ccc(C2Nc3ccccc3NC3=C2C(=O)CC(C)(C)C3)cc1OC (stereo unspecified) | inconclusive: 7.94 µM [activator, partial curve, poor fit]
CCOC(=O)c1ccc(NC(=O)CNC(=O)C2CCCCC2)cc1 | inactive
COc1ccc(Cn2c(=S)[nH]c3cc(C(=O)NCCCN4CCOCC4)ccc3c2=O)cc1 | inconclusive: 1.26 µM [inhibitor, single point]
CCN1C(=O)c2n[nH]c(C(=O)OC)c2C1=O | inactive
Cc1cc(C(=O)NC2CCCc3c2cnn3-c2ccc(C)c(C)c2)nc(C)n1 (stereo unspecified) | inactive
Cc1ccc(-c2nnc(Nc3ccc(F)cc3)c3ccccc23)cc1S(=O)(=O)N1CCN(C)CC1 | inconclusive: 2.51 µM [inhibitor, partial curve, poor fit]
Cc1ccc(CNCc2cccn2-c2nnc(N3CCCC3)s2)cc1 | inconclusive: 3.55 µM [activator, single point]
